Experimental findings from paper PMC4510537 are described below.

These are yes or no findings as the source states them, for the method shown. In cells and extracts the contact can be indirect. Some binding calls cover weakened binding; strength is not graded here. Where a sequence is shown, tags or fusion partners need not be part of it.

The experiment has as its target HA2-CD164 (human) (UniProt Q04900). Kind of experiment: co-IP; HEK-293 cells co-transfected with distinctly tagged CD164 and CD164 R192*, lysed 2 days later in immunoprecipitation buffer; precipitated with anti-HA (12CA5) and protein G agarose; reducing SDS-PAGE, immunoblot with anti-FLAG (M2) or anti-HA.

B1: FLAG4-CD164 R192* (protein, UniProt Q04900 24-191)
chain: DKNTTQHPNVTTLAPISNVTSAPVTSLPLVTTPAPETCEGRNSCVSCFNVSVVNTTCFWIECKDESYCSHNSTVSDCQVGNTTDFCSVSTATPVPTANSTAKPTVQPSPSTTSKTVTTSGTTNNTVTPTSQPVRKSTFDAASFIGGIVLVLGVQAVIFFLYKFCKSKE
Turning to B1, the binding result is reported as “binds”.
